From patent US4478826A (Merck & Co., Inc., priority 1982, dated 1984)
Strings that start with PEPTIDE1 are HELM notation: dots part the residues, brackets hold end groups and non-standard residues.

Assay: general procedure: Boc solid-phase peptide synthesis
Settings: whole synthesis, no impurities detected at the 1% level

## PEPTIDE1{[IVA].H.P.F.H.[Sta].L.F.[am]}$$$$V2.0
HPLC
  final purity (method not given): greater than 99% pure
  final HPLC purity: Greater than 99% single peak
